In US20080213277A1:
These are yes or no findings as the source states them, for the method shown. Some entries that bind do so weakly or less than the wild type.

Assays:
[1] = biological target: T1, recombinant human prohepcidin (SEQ ID NO: 102) (human); assay: sandwich immunoassay: Ab2.7 capture, biotinylated rabbit anti-prohepcidin polyclonal detection, prohepcidin standard titrated after 60 min at 25 C in the named buffer or serum
T1 sequence: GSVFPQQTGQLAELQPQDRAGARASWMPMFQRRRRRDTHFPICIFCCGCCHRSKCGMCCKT

[2] = biological target: T2, hepcidin 20 (SEQ ID NO: 96) (human); assay: BIAcore solution competition, grade interpreted from Table 6 (++++ = 100% inhibition by the solution form)
T2 sequence (peptide): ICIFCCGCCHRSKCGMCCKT

B1: murine anti-human hepcidin monoclonal antibody 2.7 (antibody, V domains shown)
VH: QIQLVQSGPELKKPGETVKISCKASGYTFTTYGMSWVKQAPGKGLKWMGWINTYSGVPTYADDFKGRFAFSLETSASTAYLQINNLKNEDTATYFCGRDHYYGEVAYWGQGTLVTVSA
VL: DIVLTQSPASLAVSLGQRATISCRASESVDSYGNSFMHWYQQKPGQPPKLLIYRASNLESGIPARFSGSGSRTDFTLTINPVEADDVATYYCHQSNEEYTFGGGTKLEIK
Q: For B1, which binding [1] is on record?
A: binds

B2: rat anti-human hepcidin monoclonal antibody R9 (antibody, V domains shown)
VH: QVTLKESGPGILQPSQTLSLTCSFSGFSLSTSGICVSWIRQPSGKGLEWLATICWEDSKGYNPSLKNRLTISKDTSNNQAFLKITSVDTADTAIYYCARPLNYGGYSELELDYWGQGVMVTVSS
VL: DIQMTQSPSLLSASVGDRVTLSCKASQNIYKYLNWYQQKLGEAPKLLIYYTNSLQTGIPSRFSGSGSGTDFTLTISSLQPEDVATYYCYQYNSGPTFGAGTKLELK
Q: How did the binding [2] turn out when B2 was run?
A: binds
